# Library compounds against nucleic acid targets

Oligonucleotides screened, 5′ to 3′:
T1: SAM-II riboswitch RNA pseudoknot, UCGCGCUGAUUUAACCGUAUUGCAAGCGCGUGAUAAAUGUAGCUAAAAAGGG. About 21,000 compounds screened, about 200 hits.
T2: PreQ1 riboswitch RNA pseudoknot, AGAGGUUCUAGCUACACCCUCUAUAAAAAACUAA. From B. subtilis. About 24,000 compounds screened, about 170 hits.
T3: TPP riboswitch RNA three-way junction, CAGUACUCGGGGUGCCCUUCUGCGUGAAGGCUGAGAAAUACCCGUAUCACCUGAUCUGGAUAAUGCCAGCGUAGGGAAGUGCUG. About 24,000 compounds screened, about 160 hits.

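The test is a small-molecule microarray: each compound is printed twice on a reactive slide, and binding shows as fluorescence of the labelled oligonucleotide after washing. For the PreQ1, TPP and SAM-II riboswitches the laboratory earlier reported (doi:10.1038/s41467-019-09493-3) 1 µM RNA, 2 h, and a rule that included a mean Z-score above 3 (spot signal-to-noise against the whole library), a score well above that on a control array, and duplicate spots agreeing (coefficient of variation under 100). The data file gives only the calls; its cut-offs may differ, and compounds hitting several targets are kept. The calls come from the array alone, and fixing a compound to the slide can hide its binding.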 Key: Y = hit, N = tested without a hit. The compounds are a random part of those screened. A dash means that no call is listed here.

Compound	T1	T2	T3
O=C(CN1Cc2ccccc2C1)N1CCN(CCO)CC(O)C1 (stereo unspecified)	N	N	N
C=CCOC(=O)C1=C(C)OC(N)=C(C#N)C1c1ccc(OC)cc1 (stereo unspecified)	N	N	N
COc1ccc(CCNC(=O)c2sc3nc(-c4ccc(F)cc4)ccc3c2N)cc1OC	N	N	N
O=C(NCCC(c1ccccc1)c1ccccc1)C1CC2(CCNCC2)CN1 (stereo unspecified)	N	N	N
CCCCc1nc(CN2C[C@H](C3CC3)[C@@H](N)C2)c[nH]1	N	N	N
O=C(O)c1ccc(Nc2nc(-c3ccccn3)cs2)cc1	N	N	N
CC(C)N1CC2(CCNCC2)OC(=O)C1=O.Cl	N	N	N
Nc1ccc2[nH]c(C=Cc3ccccc3)nc2c1	N	N	N
COc1ccc(-c2cc(C(F)(F)F)nc(NCc3ccccc3)n2)cc1	N	N	N
N[C@H]1CN(c2cc(C(=O)N3CCOCC3)ccn2)C[C@@H]1C1CC1	N	N	N
Cc1cccnc1CN1CCN(C(=O)c2ccccc2C2CCNC2)CC1 (stereo unspecified)	N	N	N
Cc1ccc2c(N)c(C(=O)c3ccc(-c4ccccc4)cc3)sc2n1	N	N	N
CC[C@H](Nc1ncnc2nc[nH]c12)c1nc2cccc(F)c2c(=O)n1-c1ccccc1	N	N	N
CC1(C)CC(O)(CNCc2ccc3c(c2)OCO3)CCO1 (stereo unspecified)	N	N	N
CCn1c(C(=O)O)c(CNCc2ccc(OC(C)C)cc2)c2ccc(OC)cc21	-	N	N
CNCCN1C(=O)CC[C@H]2CN(C(=O)CCc3cccnc3)CC[C@H]21	N	N	N
COCCCNc1nc(-c2ccc(C(C)(C)C)cc2)nc2ccccc12	N	N	N
CC(=O)c1sc2nc(N)nn2c1C.Cl	N	N	N
O=C(O)c1ccc(N2CCC3(CC2)CNC(C(=O)O)C3)nc1 (stereo unspecified)	N	N	N
CCC1CN1P1(=O)OCC(C)([N+](=O)[O-])CO1 (stereo unspecified)	N	N	N
Cc1cc(NCc2ccccc2)n2nc(-c3ccccc3C)nc2n1	-	N	N
CC(C)c1c(C(=O)NCCO)nnn1-c1ccc(Cl)cc1	-	N	N
OCCn1nc(C2CC2)nc1-c1cc2c(s1)CCCCC2	N	N	N
Cl.c1cnc(Oc2cccc(CNCCc3c[nH]c4ccccc34)c2)nc1	N	N	N
Cn1c(=O)c2cn(-c3ccccc3N)cc2n(C)c1=O	N	N	N
Cn1c(NCc2ccccc2)nc2c1c(=O)n(Cc1ccc(F)cc1)c(=O)n2C	N	N	N
COCCOC(=O)C1=C(N)OC2=C(C(=O)CCC2)C1c1ccc(Br)cc1 (stereo unspecified)	N	N	N
Cc1cc(NCCN2CCOCC2)n2nc(-c3ccccc3)c(C)c2n1	-	N	N
O=C(C[n+]1cccc(CO)c1)Nc1nc2ccccc2s1.[Cl-]	N	N	N
Nc1c(C(=O)Nc2ccc(F)cc2)sc2ncccc12	N	N	N
Cc1ccc(S(=O)(=O)c2nc(-c3ccccc3)oc2NC2CC2)cc1	-	N	N
OCC1(CCOc2ccccc2)CCCN(c2nnnn2-c2ccccc2)C1 (stereo unspecified)	N	Y	N
Clc1ccc(Nc2nc(-c3ccncc3)nc3ccccc23)cc1	N	N	N
Brc1ccc(Nc2nc(-c3ccncc3)cs2)cc1	N	N	N
O=S1(=O)N=C(Nc2ccc(N3CCCCC3)c(Cl)c2)c2ccccc21	N	N	N
CC1Cn2c(nnc2-c2cccc(N)c2)S1 (stereo unspecified)	N	N	N
Cc1cccnc1[C@H](C)Nc1nc(N)nc2c1CCCC2	N	N	N
CC(C)c1nc2sc3c(NCCN4CCOCC4)ncnc3c2c2c1CCCC2	N	N	N
CC(C)c1ccc2oc3nc(N)c(C(=O)O)cc3c(=O)c2c1	N	N	N
CCn1c(NCCCO)nc2c1c(=O)[nH]c(=O)n2C	N	N	N
OC(CNc1ccc(-c2nc(-c3ccccc3F)no2)cn1)c1cccnc1 (stereo unspecified)	N	N	N
Cc1nc2sc3c(NCc4ccco4)ncnc3c2c2c1COC(C)(C)C2	N	N	N
O=C(Cn1cnnn1)N1CCC2(CCN(Cc3ncc[nH]3)CC2)C(CO)C1 (stereo unspecified)	N	N	N
Nc1cccn2cc(-c3cccs3)nc12	N	N	N
CC1(C)CNC(=O)c2nc(CCN3CCC(O)CC3)[nH]c2C1	N	N	N
ON=Cc1ccc(OCC(O)Cn2c3ccc(Cl)cc3c3cc(Cl)ccc32)cc1 (stereo unspecified)	N	N	N
CC1(C)Cc2c(sc3ncn4nc(-c5cc([N+](=O)[O-])ccc5O)nc4c23)C(C)(C)N1	N	N	N
Cc1n[nH]c2c1C1(C(=O)N(C)c3ccccc31)C(C#N)=C(N)O2 (stereo unspecified)	N	N	N
CN(Cc1cnc2nc(N)nc(N)c2n1)c1ccc(C(=O)N[C@@H](CCC(=O)O)C(=O)O)cc1	N	N	N
CCc1nc2sc3c(NCC4CCCO4)ncnc3c2c2c1CCCC2 (stereo unspecified)	N	N	N
COC(OC)C1(C)NC(=O)c2ccccc2N1 (stereo unspecified)	N	N	N
Cc1ccc(OC2CCN(C(=O)[C@@H](N)CCCNC(N)=O)CC2)cc1	N	N	N
COCc1nc2ccccc2n1CC(O)COc1ccc(C(C)C)cc1 (stereo unspecified)	-	N	N
CCN(CC)CCNc1ncnc2c1sc1nc(N3CCOCC3)c3c(c12)CC(C)(CC)OC3 (stereo unspecified)	N	N	N
CC(=O)N1CCN(c2nc(-c3ccccc3)nc3c2CCC3)CC(O)C1 (stereo unspecified)	N	N	N
C[C@@H](NCc1cc2ccccc2[nH]1)c1cccc2ccccc12	N	N	N
NC(=O)Cc1nc(C2CNCCO2)n(CCc2ccccc2)n1 (stereo unspecified)	N	N	N
Cc1n[nH]c(C)c1C(N)C(=O)N1CCc2[nH]c(-c3ccccc3)nc2C1 (stereo unspecified)	N	N	N
Fc1ccccc1Nc1nc2nonc2nc1N1CCOCC1	N	N	N
CN1C[C@@H](N)C[C@H]1C(=O)NCc1cc2n(n1)CCN(C1CCCCC1)C2	N	N	N
CC1(C)Cc2c(ccc3ccccc23)C(Sc2ccc(N)cc2)=N1	N	N	N
CC(C)CC(NC(=O)OCc1ccccc1)C(=O)NC(Cc1c[nH]c2ccccc12)C(=O)O (stereo unspecified)	N	N	N
CC1CC(C)CN(C(=O)C2CCC(CNc3c(N4CCCCC4)c(=O)c3=O)CC2)C1 (stereo unspecified)	-	N	N

Some entries from above, unchanged:

Compound,T1,T2,T3
CN(Cc1cnc2nc(N)nc(N)c2n1)c1ccc(C(=O)N[C@@H](CCC(=O)O)C(=O)O)cc1,N,N,N
O=C(C[n+]1cccc(CO)c1)Nc1nc2ccccc2s1.[Cl-],N,N,N
OC(CNc1ccc(-c2nc(-c3ccccc3F)no2)cn1)c1cccnc1 (stereo unspecified),N,N,N
Cc1ccc(S(=O)(=O)c2nc(-c3ccccc3)oc2NC2CC2)cc1,-,N,N
Nc1c(C(=O)Nc2ccc(F)cc2)sc2ncccc12,N,N,N
Nc1cccn2cc(-c3cccs3)nc12,N,N,N
Cn1c(NCc2ccccc2)nc2c1c(=O)n(Cc1ccc(F)cc1)c(=O)n2C,N,N,N
Cc1n[nH]c(C)c1C(N)C(=O)N1CCc2[nH]c(-c3ccccc3)nc2C1 (stereo unspecified),N,N,N

Source: the ROBIN nucleic acid binder screens (doi:10.1002/anie.202211358).